# Measurements published in paper PMC3308990.
# Sequences of proteins named here, by UniProt entry; tags and fusion partners are left off. A change or cut given only in a name is not applied to a line headed by its entry.
# UniProt Q9D198: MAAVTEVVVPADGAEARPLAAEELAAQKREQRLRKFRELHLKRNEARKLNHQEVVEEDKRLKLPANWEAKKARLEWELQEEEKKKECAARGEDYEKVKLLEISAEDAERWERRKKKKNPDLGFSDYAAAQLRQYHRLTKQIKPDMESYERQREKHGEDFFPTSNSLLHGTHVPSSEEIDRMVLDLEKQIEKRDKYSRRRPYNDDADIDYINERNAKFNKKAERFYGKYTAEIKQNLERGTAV
# UniProt O88569: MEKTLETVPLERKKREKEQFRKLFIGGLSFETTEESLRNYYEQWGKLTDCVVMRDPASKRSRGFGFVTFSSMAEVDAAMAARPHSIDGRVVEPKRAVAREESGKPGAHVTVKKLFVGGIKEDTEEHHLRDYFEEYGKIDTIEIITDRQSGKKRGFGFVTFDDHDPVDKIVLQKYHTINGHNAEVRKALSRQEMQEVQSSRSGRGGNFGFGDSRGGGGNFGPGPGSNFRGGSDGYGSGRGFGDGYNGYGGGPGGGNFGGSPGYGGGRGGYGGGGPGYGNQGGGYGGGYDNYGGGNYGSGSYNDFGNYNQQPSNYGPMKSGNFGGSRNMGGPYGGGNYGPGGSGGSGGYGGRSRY
# UniProt Q8VEK3: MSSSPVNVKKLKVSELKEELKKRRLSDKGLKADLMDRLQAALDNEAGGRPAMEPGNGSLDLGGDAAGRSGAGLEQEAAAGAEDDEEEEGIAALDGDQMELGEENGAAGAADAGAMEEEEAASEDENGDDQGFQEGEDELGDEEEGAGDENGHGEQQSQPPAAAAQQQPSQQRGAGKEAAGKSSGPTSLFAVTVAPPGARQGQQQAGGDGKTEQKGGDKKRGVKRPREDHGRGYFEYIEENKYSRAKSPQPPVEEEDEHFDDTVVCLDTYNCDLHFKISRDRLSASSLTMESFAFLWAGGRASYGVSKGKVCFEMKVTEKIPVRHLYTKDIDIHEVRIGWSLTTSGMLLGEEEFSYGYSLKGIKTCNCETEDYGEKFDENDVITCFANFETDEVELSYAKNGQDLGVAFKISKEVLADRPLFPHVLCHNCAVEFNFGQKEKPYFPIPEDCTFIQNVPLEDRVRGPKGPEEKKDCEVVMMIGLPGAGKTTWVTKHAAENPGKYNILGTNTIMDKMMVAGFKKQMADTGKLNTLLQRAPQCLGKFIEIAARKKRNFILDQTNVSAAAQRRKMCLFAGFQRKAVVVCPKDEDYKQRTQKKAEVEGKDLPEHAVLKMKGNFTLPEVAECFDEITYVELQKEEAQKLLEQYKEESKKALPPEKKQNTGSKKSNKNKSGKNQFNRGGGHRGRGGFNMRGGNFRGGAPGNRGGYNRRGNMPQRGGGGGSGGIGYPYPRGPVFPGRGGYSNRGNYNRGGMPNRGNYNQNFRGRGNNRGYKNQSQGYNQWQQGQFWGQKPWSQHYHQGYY
# Results are given in words; binding and its absence hold for the method and conditions named. Binding seen in cells or lysates may run through a third protein. A yes stands for co-enrichment or nearness to the bait. Other partners may have been found.
# Molecular target: HA-mp29 (mouse) (UniProt Q9D198)
# Assay: affinity purification with mass spectrometry; HA-mp29 immunoprecipitated complexes analysed by mass spectrometry; cells and conditions not told for this experiment
row,binding,Substance
1,binds,hnRNPA2 (from UniProt O88569 1-353)
2,binds,hnRNPU (from UniProt Q8VEK3 1-800)
